Test results as given in US11511054B2, “Use of antistatic materials in the airway for thermal aerosol condensation process” (Alexza Pharmaceuticals, Inc., priority 2015, dated 2022).

Tests used:
[1] = Total net charge vs. airway housing deposition, standard vs anti-static polycarbonate housing; details: mean ± SD, N-4
[2] = Effect of induction charging on airway housing deposition (ESD simulator, HPLC of housing extract); details: 15 LPM, mean ± SD
[3] = Airway deposition and aerosol charges for Permastat, Permastat Plus and standard airway material (Example 38); details: 28.3 LPM, single devices, listed as AZ002
[4] = no applied potential to airway housing

SMILES | Aerosol deposition on airway housing ([1]; anti-static polycarbonate airway housing) [% Loaded Dose] | Aerosol deposition on airway housing ([1]; standard polycarbonate airway housing) [% Loaded Dose] | Aerosol Deposition on Housing ([2]; +16 kV applied to airway housing) [% Loaded Dose] | Aerosol Deposition on Housing [2, 4] [% Loaded Dose] | Aerosol Deposition on Housing ([2]; −16 kV applied to airway housing) [% Loaded Dose] | Airway deposition ([3]; Permastat airway, 1 mg) | Emitted dose ([3]; Permastat airway, 1 mg) | Emitted dose ([3]; control (normal) airway, 1 mg coated) | Airway deposition ([3]; control (normal) airway, 1 mg)
Cc1nnc2n1-c1ccc(Cl)cc1C(c1ccccc1)=NC2 [Alprazolam] | 0 ± 0 | 15 ± 2 | 45 ± 6 | 12 ± 6 | 12 ± 4 | 0.2% and 0.1% | 96.6% and 96.1% and 96.2% and 95.7% | 81.3% and 78.8% and 80.7% and 84.3% | 15.0% and 16.8% and 16.1% and 12.3%
CN1CCN(CCCN2c3ccccc3Sc3ccc(Cl)cc32)CC1 [Prochlorperazine] | – | – | – | 3 ± 3 | – | – | – | – | –
CCN(C(C)=O)c1cccc(-c2ccnc3c(C#N)cnn23)c1 [Zaleplon] | – | – | – | 0 ± 0 | – | – | – | – | –

“And” between values parts separate entries of the source, which are not always exact repeats. Identical values can stand only once.
